Earlier results, collected in US20070281925A1, “USE OF SERTINDOLE FOR THE PREVENTIVE TREATMENT OF SUICIDAL BEHAVIOUR” (H. Lundbeck A/S, priority 2006, published 2007).
At least one compound was matched to its structure with a doubt left.

Tested on: human subjects with schizophrenia and schizoaffective disorder at high risk for suicide
Conditions: compared with olanzapine; cited from earlier work

## CN1CCN(C2=Nc3cc(Cl)ccc3Nc3ccccc32)CC1 [clozapine]
  Reducing the risk of suicide: superior to olanzapine
